Some of the results follow. Shown are side measurements of this screen, not its main read-out; they come without a call. Compounds called inactive in the main read-out are mostly missing here. Potencies come from curve fits of mixed quality, noted in brackets.
Test: qHTS Assay for Lipid Storage Modulators in Drosophila S3 Cells;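 for cell number change: cells counted by Cell Tracker Red CMTPX staining in the red channel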
Conditions: BODIPY lipid droplet fluorescence, 18-24 h; for cell number change: measured here: cell count max response, cells fed with added oleic acid
Outline: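 Drosophila S3 cells loaded with oleic acid (400 uM, as added) and compounds at several concentrations; lipid droplets imaged by 488-nm laser-scanning cytometry, 500–530 nm intensity and object ratio to cell channel. Percent activity normalized to 20 uM Triacsin C.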

[1] = measured here: lipid fluorescence (Fed channel) AC50, cells fed with added oleic acid
[2] = measured here: cell number channel AC50, cells fed with added oleic acid

Structure (SMILES)	cell number change [%]	AC50 [1]	AC50 [2]
COc1ccc(C(CNC(=O)c2nn(-c3ccccc3)c(=O)c3ccccc23)N2CCOCC2)cc1 (centres undefined)	-6	4.11 µM [falling, single point]	–
CN(C)c1ccc(/C=N/Nc2nc3ccccc3o2)cc1	-14.1	29.1 µM [falling, single point]	–
CC(=O)c1nccs1	-5.2	10.3 µM [rising, single point]	–
CCOC(=O)C1=C(C)N(CC(C)C)C(=O)C1	-12.1	–	–
O=C(CSc1nnc(CN2CCCC2)n1-c1ccc(F)cc1)c1ccc2c(c1)OCO2	–	–	6.51 µM [rising, single point]
CCN(CC)S(=O)(=O)c1ccc(N2CCCCC2)c(C(=O)Nc2ccccc2N2CCOCC2)c1	22	29.1 µM [falling, single point]	–
CC(C)C[C@@H](NC(=O)C1CCC(CNC(=O)[C@@H]2CCCN2C(=O)OC(C)(C)C)CC1)C(=O)O (some centres undefined)	20.6	–	–
CCOC(=O)c1cc(NC(=O)c2ccc(Cl)cc2)c(=O)oc1-c1ccccc1	-28.5	3.66 µM [falling, full curve]	–
Cc1ccc(N(NC(=O)C(O)(c2ccccc2)c2ccccc2)C(=O)CCl)cc1	-23.7	7.31 µM [falling, partial curve]	–
Cc1ccccc1N1CCN(CCC(=O)Nc2ccc(F)cc2)CC1	-10.9	–	–
CCc1ccccc1-n1nnnc1SCC(=O)Nc1cc(C)on1	7.26	–	1.46 µM [rising, partial curve]
COc1ccc(/C=C/C(=O)NC(=S)Nc2cc3oc4ccccc4c3cc2OC)cc1	33.3	–	29.1 µM [rising, single point]
O=C(NNC(=O)C(c1ccccc1)c1ccccc1)c1cccs1	-48.3	1.84 µM [falling, partial curve]	1.64 µM [falling, partial curve]
Cc1cc(NS(=O)(=O)c2ccc(Nc3nc(-c4sc(C)nc4C)cs3)cc2)no1	44.1	–	14.6 µM [rising, single point]
Cc1cccc(C)c1OCCCCN1CCNCC1	-8.24	18.4 µM [rising, single point]	–
COc1ccc(C2CC(c3ccccc3)=NN2C(=O)COC(=O)c2nc3nccc(C)n3n2)cc1 (centres undefined)	14.5	–	–
COc1ccc2nc(C)cc(NCc3ccc(F)cc3)c2c1	236	0.231 µM [falling, full curve, poor fit]	25.9 µM [rising, partial curve]
Cc1nn(-c2ccccc2)c2c1C1(C(=O)N(C)c3ccccc31)C(C#N)=C(N)O2 (centres undefined)	-25.8	18.4 µM [falling, partial curve]	–
Cc1ccc(C)c(-n2c(SCC(=O)NC(C(=O)O)C(C)C)nnc2-c2cccc(Cl)c2)c1 (centres undefined)	-48.7	9.2 µM [falling, single point]	25.9 µM [falling, single point]

Structure (SMILES)	cell number change [%]	AC50 [1]	AC50 [2]
O=C(NC1CC1)c1ccc(CSCc2ccccc2Cl)o1	-13.2	0.13 µM [falling, full curve, poor fit]	–
COc1ccccc1C(=O)Nc1ccccc1N1CCN(C(=O)c2ccc(Cl)cc2)CC1	-1.05	–	–
O=C(NC(NNc1ccc([N+](=O)[O-])cc1)(C(F)(F)F)C(F)(F)F)c1ccccc1Cl	–	0.184 µM [rising, full curve, poor fit]	2.06 µM [rising, single point]
COc1ccc(/C=C/C(=O)OC(C)CN2CCOCC2)cc1 (centres undefined)	-20.3	29.1 µM [falling, single point]	–
O=C(Nc1ccccc1C(=O)NCCc1ccccc1)c1ccco1	10.7	4.11 µM [rising, single point]	4.11 µM [rising, single point]
Cc1cc(=O)[nH]c(/N=C(\N)Nc2ccc(SC(F)F)cc2)n1	12.9	1.16 µM [rising, partial curve]	0.00517 µM [rising, full curve, poor fit]
Cn1c(SCC(=O)NC(=O)NCc2ccccc2)nnc1C(F)(F)F	38.5	23.1 µM [rising, partial curve, poor fit]	29.1 µM [rising, single point]
CC(O)c1nc2ccccc2n1CC(=O)N1CCN(c2ccccc2)CC1 (centres undefined)	6.72	0.259 µM [rising, partial curve, poor fit]	–
Nc1nnc(SCC(=O)NNC(=O)c2ccc(F)cc2)s1	15.1	–	–
NC(=NCCc1c[nH]c2ccccc12)NC(=O)c1ccc(Cl)cc1	-43.3	29.1 µM [falling, single point]	29.1 µM [falling, single point]
CCCCCC(=O)NCC(C)NC(=O)CCCCC (centres undefined)	3.16	29.1 µM [falling, single point]	–
CCCCCn1c(=O)[nH]c2cc(C(=O)N3CCN(c4ccc(C(C)=O)cc4)CC3)ccc2c1=O	-3.95	5.62 µM [rising, single point]	–
NS(=O)(=O)c1ccc(-c2ccc(C=NC3CCS(=O)(=O)C3)o2)cc1 (centres undefined)	-1.61	–	–
O=C(NC1CC1)C1CC(=O)N(c2cccc(Cl)c2Cl)C1 (centres undefined)	17.8	5.8 µM [falling, single point]	–
COCCN1CCN(C(=O)c2ccc3nc(Cc4ccccc4F)oc3c2)CC1	7.78	13 µM [rising, partial curve, poor fit]	–
Cc1ccc(S(=O)(=O)N(CC(=O)Nc2ccc(Cl)c([N+](=O)[O-])c2)C2CCCCC2)cc1	-10.4	29.1 µM [falling, single point]	–
O=C(Cn1cc(/C=N/NC(=O)c2ccccc2Br)c2ccccc21)Nc1ccc(F)cc1	-36.5	29.1 µM [falling, single point]	0.103 µM [falling, full curve, poor fit]
COCCn1cnc2c1c(=O)n(CC(=O)OCC(=O)NCCCc1ccccc1)c(=O)n2Cc1ccccc1	–	–	0.58 µM [rising, partial curve, poor fit]
COc1ccccc1C(=O)NCCC(=O)NCCc1ccccc1	-15.7	0.58 µM [rising, single point]	–

Shown in markdown: 15 of the compounds above

| Structure (SMILES) | cell number change [%] | AC50 [1] | AC50 [2] |
| --- | --- | --- | --- |
| COc1ccccc1C(=O)Nc1ccccc1N1CCN(C(=O)c2ccc(Cl)cc2)CC1 | -1.05 | – | – |
| O=C(NC(NNc1ccc([N+](=O)[O-])cc1)(C(F)(F)F)C(F)(F)F)c1ccccc1Cl | – | 0.184 µM [rising, full curve, poor fit] | 2.06 µM [rising, single point] |
| COc1ccc(/C=C/C(=O)OC(C)CN2CCOCC2)cc1 (centres undefined) | -20.3 | 29.1 µM [falling, single point] | – |
| O=C(Nc1ccccc1C(=O)NCCc1ccccc1)c1ccco1 | 10.7 | 4.11 µM [rising, single point] | 4.11 µM [rising, single point] |
| Cc1cc(=O)[nH]c(/N=C(\N)Nc2ccc(SC(F)F)cc2)n1 | 12.9 | 1.16 µM [rising, partial curve] | 0.00517 µM [rising, full curve, poor fit] |
| Cn1c(SCC(=O)NC(=O)NCc2ccccc2)nnc1C(F)(F)F | 38.5 | 23.1 µM [rising, partial curve, poor fit] | 29.1 µM [rising, single point] |
| CC(O)c1nc2ccccc2n1CC(=O)N1CCN(c2ccccc2)CC1 (centres undefined) | 6.72 | 0.259 µM [rising, partial curve, poor fit] | – |
| Nc1nnc(SCC(=O)NNC(=O)c2ccc(F)cc2)s1 | 15.1 | – | – |
| NC(=NCCc1c[nH]c2ccccc12)NC(=O)c1ccc(Cl)cc1 | -43.3 | 29.1 µM [falling, single point] | 29.1 µM [falling, single point] |
| CCCCCC(=O)NCC(C)NC(=O)CCCCC (centres undefined) | 3.16 | 29.1 µM [falling, single point] | – |
| CCCCCn1c(=O)[nH]c2cc(C(=O)N3CCN(c4ccc(C(C)=O)cc4)CC3)ccc2c1=O | -3.95 | 5.62 µM [rising, single point] | – |
| NS(=O)(=O)c1ccc(-c2ccc(C=NC3CCS(=O)(=O)C3)o2)cc1 (centres undefined) | -1.61 | – | – |
| O=C(NC1CC1)C1CC(=O)N(c2cccc(Cl)c2Cl)C1 (centres undefined) | 17.8 | 5.8 µM [falling, single point] | – |
| COCCN1CCN(C(=O)c2ccc3nc(Cc4ccccc4F)oc3c2)CC1 | 7.78 | 13 µM [rising, partial curve, poor fit] | – |
| Cc1ccc(S(=O)(=O)N(CC(=O)Nc2ccc(Cl)c([N+](=O)[O-])c2)C2CCCCC2)cc1 | -10.4 | 29.1 µM [falling, single point] | – |

Continued:

Structure (SMILES)	cell number change [%]	AC50 [1]	AC50 [2]
Cc1nonc1C(=O)N1CCCC(N2CCN(c3ccc(F)cc3)CC2)C1 (centres undefined)	13	0.731 µM [rising, full curve]	–
Fc1ccc2c(c1)c1n[nH]c(=S)nc1n2CCc1ccccc1	-13.9	0.116 µM [falling, full curve, poor fit]	–
Cc1ccc(-c2nc(CS(=O)(=O)CC(=O)NCc3cccc(F)c3)c(C)o2)cc1	-13.3	–	–
CC(CCc1ccccc1)NC(=O)c1ccccc1 (centres undefined)	37.7	25.9 µM [rising, partial curve, poor fit]	18.4 µM [rising, single point]
CC(=O)Nc1nc2nc(-c3ccccc3)cc(-c3ccccc3)n2n1	2.97	2.06 µM [falling, partial curve, poor fit]	0.00461 µM [falling, full curve, poor fit]
COc1ccccc1N1CSC2=C(C#N)C(c3ccc(SC)cc3)CC(=O)N2C1 (centres undefined)	48.4	1.3 µM [rising, partial curve, poor fit]	4.11 µM [rising, partial curve, poor fit]
O=C(COC(=O)c1ccc2c(c1[N+](=O)[O-])C(=O)c1ccccc1C2=O)NC1CC1	–	23.1 µM [falling, partial curve]	–
Cn1nnnc1SCc1nnc(-c2ccccc2Br)o1	12.4	–	–
CCCc1cc(NC(=O)CCl)n(-c2ccccc2)n1	-35.4	29.1 µM [falling, single point]	16.4 µM [falling, single point]
COc1ccccc1N(C)S(=O)(=O)c1ccc(C(=O)N(CC(N)=O)C(C)C)cc1	5.57	0.146 µM [rising, full curve, poor fit]	–
O=C(CN1CCC(NC(=O)Nc2ccc(F)cc2)CC1)Nc1ccccc1[N+](=O)[O-]	-15.3	6.51 µM [falling, single point]	–
CCCCn1c(=S)[nH]c2cc(S(=O)(=O)N3CCCCC3)ccc21	37.3	3.26 µM [rising, partial curve]	2.31 µM [rising, full curve]
COc1ccc(-c2cc(CS(=O)(=O)c3ccccc3)on2)cc1	12	–	–
COc1cccc(N2C(=O)CC(N3CCN(c4ccc([N+](=O)[O-])cc4)CC3)C2=O)c1 (centres undefined)	21.7	6.51 µM [rising, partial curve, poor fit]	–
Cc1ccc(/C=N/NC(=O)c2cccc(NC(=O)c3ccccc3C)c2)o1	-5	1.16 µM [rising, single point]	–
COc1ccc(C(=O)CSc2nn3c(=O)c(C(C)(C)C)nnc3s2)cc1	6.64	0.0411 µM [falling, full curve, poor fit]	–
COC(=O)COc1cccc2c(=O)n(CC(=O)Nc3ccc4c(c3)OCCO4)ccc12	-25.4	32.6 µM [falling, single point]	–
CN(C)S(=O)(=O)c1cccc(NC(=S)NC23CC4CC(CC(C4)C2)C3)c1	-7.69	0.116 µM [falling, single point]	–
O=C(NNC(=O)C1CCN(c2ncccn2)CC1)c1ccc(F)cc1	8.11	29.1 µM [rising, single point]	–

From PubChem BioAssay AID2685 (National Center for Advancing Translational Sciences (NCATS), 2010)
